Data on 2 molecules can be found in PMC8467208.

Results are given in words; binding and its absence hold for the method and conditions named. In cells and extracts the contact can be indirect. These calls come from enrichment with a bait or labelling near it, and not all partners need be listed. Where a sequence is shown, tags or fusion partners need not be part of it.

The experiment concerns the target T1, HA-tagged SLC38A9 (mouse) (UniProt Q8BGD6).
T1 sequence: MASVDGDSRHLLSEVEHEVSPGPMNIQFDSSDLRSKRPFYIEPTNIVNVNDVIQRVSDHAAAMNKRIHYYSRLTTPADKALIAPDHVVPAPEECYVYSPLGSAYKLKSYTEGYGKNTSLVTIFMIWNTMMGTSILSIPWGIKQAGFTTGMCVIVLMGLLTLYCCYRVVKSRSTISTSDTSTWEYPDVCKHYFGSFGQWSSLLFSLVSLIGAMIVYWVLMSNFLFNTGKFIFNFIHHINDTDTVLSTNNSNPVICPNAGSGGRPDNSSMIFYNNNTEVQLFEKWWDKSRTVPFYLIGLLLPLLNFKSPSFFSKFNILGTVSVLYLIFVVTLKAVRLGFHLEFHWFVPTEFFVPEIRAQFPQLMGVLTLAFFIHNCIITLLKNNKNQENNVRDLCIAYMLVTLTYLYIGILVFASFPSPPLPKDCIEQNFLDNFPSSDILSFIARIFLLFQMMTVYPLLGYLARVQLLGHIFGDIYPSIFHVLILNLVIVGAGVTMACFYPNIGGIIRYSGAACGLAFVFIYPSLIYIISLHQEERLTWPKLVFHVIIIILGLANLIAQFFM
Description: affinity purification with mass spectrometry; C2C12 cells transfected 48 h with HA-tagged SLC38A9 or empty pCMV-HA; anti-HA-Tag (3724) immunoprecipitation from lysate, 10% SDS-PAGE, Coomassie, differential bands cut, LC-MS/MS.

B1: RPS6KC1 (protein, UniProt Q8BLK9 1-1056)
chain: MTSPWGHSADLARFYTVTEPQRHPRGYTVYKVTARVVSRRNPEDVQEIIVWRRYSDFKKLHRELWQIHRNAFRHSELFPPFAKGTVFGRFDKTVIEERRQCAEDLLQFSANIPALYNSRQLQDFFKGGVISDGSELIGPAEAYPDSPANAFPECGTEGFSSDSDLLSLTVDADSLAEVDDGMASRQGSPSRTFGLSLSTDSSAVGAVASDSEPSRVEDRESRSLFPSSLKPRLGRRDYLEKAGELIKLALKKEEEDDYEAASDFYRKGVDLLLEGVQGESSPTRREAVKRRTAEYLMRAESICSLRAAPQLHTGPQPPGSLSSRPPWSLRSPAEELKAFRVLGVIDKVLLVMDTRTEQTFILKGLRKSSECSRNRKTIIPRCVPNMVCLHTYIISEESVFLVLQRAEGGKLWSYISKFLNRSSQESLDIKEGRPSMPPRVCLQQPSASPQGGSSFESRGSDTGSMLKALPLKTSLTPSSQDDSNQEDDGQPSSPKWLDSGSSSEDECTAGYLTLCNEYGQEKMDLVSLSEESVMQPEGDKADTQAVSSPASLATGSVSPSTHLRVFSGGEDLEAVSSPPTSESLSRSKNSPMEFFRIDSKDSTSELLGLDFGEKLHSLKPEPLKALFTLEDGDSPSQSLDPGESKRESEAQDSVSRGSDDSVPVISFKEAAAEAISGAEEGRPDLLVNLPGELQPTKEASAMDPKFSQASAGRLDSKLLEAPDVLCLRLSSEQCHGLGPEGPEELSDPTEFCPGGVIPEHDAQADPGVLFEAAVDHRSSPDQFLFSSLRSESDRLGQVEVVVTAQALQESLFHISSPCSGANKEHSAYADTATSEEVLLFTEPTKEEANSLFQRGSEAQERGVGAGEADKEIHQIFEDLDKRLAASSRFFIPEGCIQRWAAEMVVALDALHREGIVCRDLNPNNILLNDGGHIQLTYFSRWSEVEDSCDSDAVARMYCAPEVGAVTEETEACDWWSLGAVLFELLTGKTLVECHPAGINTHTTLNMPGCVSEEARSLIQQLLQFNPMERLGAGVAGVEDIKSHPFFTPVDWAELTR
As for B1, the binding entry is recorded as “binds”.

B2: KAT8 (protein, UniProt Q9D1P2 1-458)
chain: MAAQGATAAVAATTSGTVGEGEPGPGENAAVEGPARSPGRVSPPTPARGEPEVTVEIGETYLCRRPDSTWHSAEVIQSRVNDQEGREEFYVHYVGFNRRLDEWVDKNRLALTKTVKDAVQKNSEKYLSELAEQPERKITRNQKRKHDEINHVQKTYAEMDPTTAALEKEHEAITKVKYVDKIHIGNYEIDAWYFSPFPEDYGKQPKLWLCEYCLKYMKFEKSYRFHLGQCQWRQPPGKEIYRKSNISVYEVDGKDHKIYCQNLCLLAKLFLDHKTLYFDVEPFVFYILTEVDRQGAHIVGYFSKEKESPDGNNVACILTLPPYQRRGYGKFLIAFSYELSKLESTVGSPEKPLSDLGKLSYRSYWSWVLLEILRDFRGTLSIKDLSQMTSITQNDIISTLQSLNMVKYWKGQHVICVTPKLVEEHLKSAQYKKPPITVDSVCLKWAPPKHKQVKLSKK
B2: the binding entry is recorded as “binds”.
